In article PMC5550887:
No constants are given. Whether binding was seen depends on the method and setting. In cells and extracts the contact can be indirect.

By UniProt entry, the sequences of proteins in these tests, tags left out. Residues count along the entry.
UniProt P45983: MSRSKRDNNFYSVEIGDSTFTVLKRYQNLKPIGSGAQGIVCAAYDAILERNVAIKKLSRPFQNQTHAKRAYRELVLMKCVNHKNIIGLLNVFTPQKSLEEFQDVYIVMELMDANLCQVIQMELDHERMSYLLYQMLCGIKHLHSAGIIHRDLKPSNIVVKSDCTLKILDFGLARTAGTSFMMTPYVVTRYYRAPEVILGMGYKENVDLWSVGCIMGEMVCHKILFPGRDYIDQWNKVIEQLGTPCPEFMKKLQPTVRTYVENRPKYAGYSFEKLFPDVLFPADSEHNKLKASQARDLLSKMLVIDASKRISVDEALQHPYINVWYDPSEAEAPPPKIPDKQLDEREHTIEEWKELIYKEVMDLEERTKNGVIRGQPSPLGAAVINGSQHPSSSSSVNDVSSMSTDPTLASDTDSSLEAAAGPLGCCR
UniProt P11021, residues 19-654: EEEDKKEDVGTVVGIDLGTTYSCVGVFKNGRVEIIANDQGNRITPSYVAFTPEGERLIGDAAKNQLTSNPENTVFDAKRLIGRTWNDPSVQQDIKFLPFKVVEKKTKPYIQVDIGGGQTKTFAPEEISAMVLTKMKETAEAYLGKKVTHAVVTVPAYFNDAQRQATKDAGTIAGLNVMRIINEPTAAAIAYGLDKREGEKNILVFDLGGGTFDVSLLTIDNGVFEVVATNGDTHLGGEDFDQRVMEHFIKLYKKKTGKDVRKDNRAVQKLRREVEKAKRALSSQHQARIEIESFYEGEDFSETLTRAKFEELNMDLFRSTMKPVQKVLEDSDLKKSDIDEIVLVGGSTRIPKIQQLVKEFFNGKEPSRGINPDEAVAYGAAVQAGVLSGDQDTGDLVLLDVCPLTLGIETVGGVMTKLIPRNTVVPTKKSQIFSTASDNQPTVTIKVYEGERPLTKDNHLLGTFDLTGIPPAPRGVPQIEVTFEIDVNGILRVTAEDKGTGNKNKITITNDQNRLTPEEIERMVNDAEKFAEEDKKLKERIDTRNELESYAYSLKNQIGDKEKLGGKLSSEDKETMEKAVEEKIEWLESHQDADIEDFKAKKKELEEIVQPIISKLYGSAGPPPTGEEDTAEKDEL

Biological target: T1, WWOX (WW domain containing oxidoreductase) (UniProt Q9NZC7)
T1 sequence: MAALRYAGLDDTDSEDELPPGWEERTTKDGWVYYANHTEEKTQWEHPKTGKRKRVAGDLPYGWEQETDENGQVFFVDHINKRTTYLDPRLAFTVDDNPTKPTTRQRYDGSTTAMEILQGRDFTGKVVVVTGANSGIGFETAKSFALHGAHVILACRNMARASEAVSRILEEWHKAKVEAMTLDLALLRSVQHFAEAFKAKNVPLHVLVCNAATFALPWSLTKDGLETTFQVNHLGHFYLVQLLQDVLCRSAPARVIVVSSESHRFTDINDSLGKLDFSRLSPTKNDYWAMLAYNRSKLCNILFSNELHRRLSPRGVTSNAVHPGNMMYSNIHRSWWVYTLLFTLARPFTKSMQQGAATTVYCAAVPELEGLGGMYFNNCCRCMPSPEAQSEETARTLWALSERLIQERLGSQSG
Assay: co-IP; lysates of cells exposed to paclitaxel (WWOX-8 cells named for GRP78); lysis in 0.5-1% Triton X or 0.5-1% NP40, 10% glycerol, 150 mM NaCl, 50 mM Tris-HCl pH 7.2; 2 ug relevant or control antibody, Protein A/G UltraLink resin, 4 °C; immunoblot

| Substance | binding |
| --- | --- |
| c-Jun N-terminal kinase 1 (JNK1) (from UniProt P45983 1-427) | no binding |
| glucose-related protein 78 (GRP78) (from UniProt P11021 19-654) | no binding |
